Taken from: PubChem BioAssay AID504764 (Drosophila RNAi Screening Center, 2011)

- Test: 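Genome-wide screen for regulators of Notch-driven gene expression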 (primary screen)
- System: Drosophila Kc167 cells
- Knock-down reagent: long dsRNA against Drosophila genes
- Timing: about 5 days (4 days dsRNA, then 24 h after transfection)
- Treatment: transfection of constitutively active membrane-tethered Notch lacking the extracellular domain, read 24 h later
- Read-out: 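Light from a Notch-responsive E(spl)m3 luciferase reporter under active Notch, with control-promoter and no-Notch reporter wells to normalise; raw counts from paired wells a and b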
- Scale: induced reporter light, run 1, well a and induced reporter light, run 1, well b: higher = more light from the Notch target reporter with active Notch; control promoter light, run 1, well a and control promoter light, run 1, well b: higher = more light from the viral control promoter (cell number, transfection, viability); uninduced reporter light, run 1, well a: higher = more light from the Notch target reporter without active Notch
- Rule for the call: 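Wells with low control signal or poorly matching duplicates excluded; duplicates averaged; per source plate, z beyond ±2 for induced/control log2 ratio or beyond ±1.8 for induced/uninduced marks a hit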
- Meaning of the calls: active = modifier hit (raised or lowered Notch signal); inactive = not a hit
The screen tested about 22,000 reagents; shown is a random part of those with a known target gene and a result. Over the whole deposit, 403 (1.9%) are marked active. 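Unnormalised raw counts per well; ratio z-scores behind the hit calls and whether each hit raises or lowers signal are not deposited.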 A plus sign joins genes that one reagent is predicted to hit. Not stated in the record: the amount of reagent.

| gene knocked down | dsRNA | induced reporter light, run 1, well a | induced reporter light, run 1, well b | control promoter light, run 1, well a | control promoter light, run 1, well b | uninduced reporter light, run 1, well a | activity call |
| --- | --- | --- | --- | --- | --- | --- | --- |
| Alg11 | DRSC11647 | 1.75e5 | 1.48e5 | 1.12e5 | 1.56e5 | 9935 | inactive |
| beat-IIa | DRSC14813 | 1.45e5 | 1.56e5 | 1.32e5 | 1.40e5 | 13165 | inactive |
| beat-IIa | DRSC14814 | 1.81e5 | 1.81e5 | 2.14e5 | 1.98e5 | 16515 | inactive |
| CSN7 | DRSC06807 | 1.52e5 | 1.34e5 | 1.21e5 | 1.28e5 | 20645 | active |
| CSN7 | DRSC06808 | 1.15e5 | 1.29e5 | 1.03e5 | 1.27e5 | 15335 | inactive |
| CG15172 | DRSC02473 | 54600 | 43260 | 45915 | 41945 | 2810 | inactive |
| CtsL1 | DRSC05462 | 1.44e5 | 1.36e5 | 2.67e5 | 2.66e5 | 15782 | inactive |
| CtsL1 | DRSC07363 | 1.41e5 | 1.50e5 | 1.36e5 | 1.21e5 | 13915 | inactive |
| und | DRSC03629 | 2.49e5 | 2.48e5 | 2.37e5 | 2.24e5 | 18795 | inactive |
| Pc | DRSC11873 | 88985 | 68815 | 91810 | 83665 | 4450 | inactive |
| Slbp | DRSC16863 | 1.05e5 | 89205 | 1.80e5 | 1.37e5 | 12655 | inactive |
| Elp4 | DRSC02999 | 2.92e5 | 2.16e5 | 53400 | 41805 | 15480 | inactive |
| Spn | DRSC07986 | 2.08e5 | 1.83e5 | 2.11e5 | 1.61e5 | 16185 | inactive |
| Spn | DRSC08490 | 80495 | 84455 | 1.37e5 | 1.34e5 | 7060 | inactive |
| Spn | DRSC08491 | 65480 | 99105 | 1.14e5 | 1.11e5 | 8135 | inactive |
| RpL34a | DRSC15964 | 1.42e5 | 1.29e5 | 1.90e5 | 1.43e5 | 10985 | inactive |
| CG14074 | DRSC10079 | 1.67e5 | 1.25e5 | 2.50e5 | 1.90e5 | 11670 | inactive |
| Or98b | DRSC16775 | 1.63e5 | 1.73e5 | 2.10e5 | 1.89e5 | 15045 | inactive |
| Or98b | DRSC21751 | – | – | – | – | – | inactive |
| Trap1 | DRSC05019 | 1.96e5 | 1.77e5 | 1.44e5 | 1.59e5 | 12505 | inactive |
| Rbp1 | DRSC16817 | 1.61e5 | 1.71e5 | 86795 | 84345 | 10905 | inactive |
| CG11619 | DRSC09849 | 51965 | 64125 | 61725 | 46365 | 2475 | inactive |
| CG3744 | DRSC15511 | 1.63e5 | 1.34e5 | 2.20e5 | 1.85e5 | 11375 | inactive |
| CG7884 | DRSC20065 | 96635 | 91950 | 1.06e5 | 1.19e5 | 12640 | inactive |
| CG10638 | DRSC09762 | 2.34e5 | 1.91e5 | 2.67e5 | 2.94e5 | 13135 | inactive |
| CG31898 | DRSC01019 | 1.36e5 | 1.12e5 | 1.77e5 | 1.98e5 | 13145 | inactive |
| Cpr78E | DRSC11807 | 1.53e5 | 1.35e5 | 1.70e5 | 1.25e5 | 10870 | inactive |
| Nup37 | DRSC14419 | 1.70e5 | 1.69e5 | 2.28e5 | 2.17e5 | 12585 | inactive |
| CkIIalpha-i1 | DRSC11115 | 1.73e5 | 1.52e5 | 2.41e5 | 2.18e5 | 5865 | inactive |
| inaF-B + inaF-D + inaF-C + 1 more | DRSC20342 | 1.19e5 | 1.00e5 | 2.20e5 | 2.00e5 | 8890 | inactive |
| cyp33 + CG34194 | DRSC05666 | 91660 | 1.03e5 | 1.29e5 | 1.18e5 | 8755 | inactive |
| Or23a | DRSC00767 | 93240 | 97115 | 1.06e5 | 76155 | 8355 | inactive |
| CG14258 | DRSC14753 | 1.26e5 | 1.25e5 | 2.09e5 | 1.58e5 | 13555 | inactive |
| CG16710 | DRSC15136 | 2.11e5 | 1.56e5 | 1.82e5 | 2.01e5 | 13250 | inactive |
| Cep290 | DRSC08359 | 98620 | 1.06e5 | 1.32e5 | 1.56e5 | 6440 | inactive |
| RhoGAP18B | DRSC19763 | 71090 | 1.13e5 | 92975 | 1.13e5 | 9705 | inactive |
| RhoGAP18B | DRSC20047 | 81445 | 72635 | 1.02e5 | 1.24e5 | 10035 | inactive |
| RhoGAP18B | DRSC20048 | 28670 | 34665 | 16395 | 25795 | 8950 | inactive |
| RhoGAP18B | DRSC20049 | 34715 | 48135 | 35150 | 61180 | 7380 | inactive |
| CG6294 + CG6299 + CG15642 | DRSC19981 | 55075 | 53700 | 54550 | 64610 | 8330 | inactive |
| CG15239 | DRSC17972 | 1.79e5 | 1.45e5 | 3.09e5 | 3.08e5 | 13000 | inactive |
| Sh | DRSC19214 | 7220 | 5410 | 7070 | 9540 | 3670 | inactive |
| Sh | DRSC19220 | 88640 | 89410 | 84840 | 89020 | 6550 | inactive |
| Sh | DRSC19785 | 90725 | 88270 | 1.26e5 | 1.01e5 | 11145 | inactive |
| Sh | DRSC20055 | 70765 | 70005 | 56835 | 64390 | 9832 | inactive |
| ItgaPS5 | DRSC04501 | 1.34e5 | 1.44e5 | 1.16e5 | 1.44e5 | 10070 | inactive |
| DCTN1-p150 | DRSC11175 | 1.18e5 | 1.32e5 | 1.05e5 | 94820 | 10930 | inactive |
| eIF4A | DRSC03526 | 3655 | 3315 | 5995 | 5635 | 255 | inactive |
| P58IPK | DRSC16404 | 51315 | 73325 | 58920 | 59225 | 3110 | inactive |
| Snx27 | DRSC17786 | 1.49e5 | 1.45e5 | 2.54e5 | 2.37e5 | 10890 | inactive |
| Snx27 | DRSC18282 | 1.26e5 | 1.35e5 | 2.45e5 | 2.56e5 | 10285 | inactive |
| Snx27 | DRSC18284 | 1.27e5 | 1.27e5 | 2.53e5 | 2.97e5 | 9825 | inactive |
| CG18223 | DRSC10306 | 89335 | 76340 | 84525 | 76465 | 5005 | inactive |
| CG2003 | DRSC15411 | 97360 | 1.15e5 | 1.58e5 | 1.74e5 | 8770 | inactive |
| CG34221 | DRSC06150 | 2.07e5 | 2.03e5 | 3.07e5 | 2.72e5 | 20910 | inactive |
| cup | DRSC03516 | 2.92e5 | 2.43e5 | 2.36e5 | 2.95e5 | 21560 | inactive |
| Rpi | DRSC04583 | 1.83e5 | 1.81e5 | 1.53e5 | 1.54e5 | 13190 | inactive |
| CG6569 | DRSC16067 | 1.74e5 | 1.74e5 | 1.61e5 | 1.73e5 | 12005 | inactive |
| scpr-A + scpr-C + scpr-B | DRSC15715 | 69295 | 60295 | 63960 | 46790 | 3728 | inactive |
| Acbp3 | DRSC11022 | 2.39e5 | 2.47e5 | 2.95e5 | 2.36e5 | 7795 | inactive |
| fy | DRSC03533 | 1.21e5 | 1.37e5 | 62025 | 77870 | 15265 | inactive |
| CG13404 | DRSC19536 | 1.12e5 | 99380 | 1.54e5 | 99695 | 15055 | inactive |
| CG13247 | DRSC11695 | 1.34e5 | 1.02e5 | 1.12e5 | 82420 | 6535 | inactive |
| CG15020 | DRSC08474 | 1.68e5 | 1.41e5 | 1.89e5 | 1.54e5 | 5305 | inactive |

A few values from the entries so far.
For “control promoter light, run 1, well b”, Nup37 [DRSC14419] shows 2.17e5
Under “induced reporter light, run 1, well b”, CG15239 [DRSC17972] shows 1.45e5
For “induced reporter light, run 1, well b”, cup [DRSC03516] is entered as 2.43e5
beat-IIa [DRSC14813], activity call: inactive
Entry for CG34221 [DRSC06150] in “uninduced reporter light, run 1, well a”: 20910
Under “control promoter light, run 1, well a”, und [DRSC03629] reads 2.37e5
